Data taken from paper PMC13572447.
These are yes or no findings as the source states them, for the method shown. Binding seen in cells or lysates may run through a third protein. Some entries that bind do so weakly or less than the wild type. Where a sequence is shown, tags or fusion partners need not be part of it.

By UniProt entry, the sequences of proteins in these tests, tags left out.
UniProt P45974: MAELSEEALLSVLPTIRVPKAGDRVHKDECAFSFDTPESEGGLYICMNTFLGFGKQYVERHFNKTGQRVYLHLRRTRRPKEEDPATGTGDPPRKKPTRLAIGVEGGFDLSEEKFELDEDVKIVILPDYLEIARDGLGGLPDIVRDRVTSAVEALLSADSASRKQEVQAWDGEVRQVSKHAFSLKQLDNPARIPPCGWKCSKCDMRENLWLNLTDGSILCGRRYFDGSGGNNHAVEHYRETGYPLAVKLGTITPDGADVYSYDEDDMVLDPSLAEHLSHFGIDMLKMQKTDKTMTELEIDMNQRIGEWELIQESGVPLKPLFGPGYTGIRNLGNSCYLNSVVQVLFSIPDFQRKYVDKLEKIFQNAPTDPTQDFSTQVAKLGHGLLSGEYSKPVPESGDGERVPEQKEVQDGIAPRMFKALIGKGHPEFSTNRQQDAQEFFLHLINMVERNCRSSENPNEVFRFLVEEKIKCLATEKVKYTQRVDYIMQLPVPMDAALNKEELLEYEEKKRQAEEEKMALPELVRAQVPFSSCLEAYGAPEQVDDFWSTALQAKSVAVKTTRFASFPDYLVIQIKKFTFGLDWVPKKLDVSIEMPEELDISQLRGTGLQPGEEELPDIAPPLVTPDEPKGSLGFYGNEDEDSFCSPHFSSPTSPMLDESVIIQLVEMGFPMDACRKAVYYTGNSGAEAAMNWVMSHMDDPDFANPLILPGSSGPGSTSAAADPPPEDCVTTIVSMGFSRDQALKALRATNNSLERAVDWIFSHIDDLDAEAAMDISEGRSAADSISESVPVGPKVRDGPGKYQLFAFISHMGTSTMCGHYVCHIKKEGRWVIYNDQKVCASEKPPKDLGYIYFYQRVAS

Molecular target: T1, HA-SDE2UBL-PA activity-based probe (human) (UniProt Q6IQ49)
T1 sequence (chain, C-terminal propargylamide, Gly77 replaced with a propargyl electrophilic warhead): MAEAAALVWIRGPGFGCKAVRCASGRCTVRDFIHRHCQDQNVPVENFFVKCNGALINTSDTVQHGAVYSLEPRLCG
Assay: co-IP; HEK293 lysate (500 µg) with 1 µM HA-SDE2UBL-PA, 45 min at 37 °C, quenched with 0.4% SDS and 0.5% NP-40, anti-HA magnetic beads, immunoblot for USP5, USP13 and HA; covalent adducts; only the target purified

Substance: endogenous USP5 of HEK293 cell lysate (from UniProt P45974 1-858) (enzyme)
- binding: binds
